Values of other authors in US8784870B2, “Controlled release compositions for modulating free-radical induced damage and methods of use thereof” (Otonomy, Inc., priority 2008, dated 2014).
For at least one compound, name, drawing or mass did not settle the structure.

Tests used:
[1] = tested on: otic hair cells; details: following gentamicin; by inhibiting induction of p38 MAPK phosphorylation
[2] = tested on: ear; details: co-administered with neomycin

Row | SMILES | prevention of apoptosis of otic hair cells [1] | prevention of ototoxic damage [2]
1 | CN(C)c1ccc(O)c2c1C[C@H]1C[C@H]3[C@H](N(C)C)C(O)=C(C(N)=O)C(=O)[C@@]3(O)C(O)=C1C2=O [Minocycline] | prevents the apoptosis of otic hair cells | –
2 | CC(=O)N(O)CCCCCNC(=O)CCC(=O)N(O)CCCCCNC(=O)CCC(=O)N(O)CCCCCN [deferoxamine] | – | prevents ototoxic damage to the ear
